Experimental data: article PMC8988137, “Re-Expression of ERα and AR in Receptor Negative Endocrine Cancers via GSK3 Inhibition” (Frontiers in Oncology, 2022)
These are yes or no findings as the source states them, for the method shown. Binding seen in cells or lysates may run through a third protein. Some binding calls cover weakened binding; strength is not graded here.

Protein sequences, listed by entry. Tags and fused reporters are not part of them. Lines headed by an entry give the natural chain unless they say otherwise; changes in a name come on top.
UniProt P26358: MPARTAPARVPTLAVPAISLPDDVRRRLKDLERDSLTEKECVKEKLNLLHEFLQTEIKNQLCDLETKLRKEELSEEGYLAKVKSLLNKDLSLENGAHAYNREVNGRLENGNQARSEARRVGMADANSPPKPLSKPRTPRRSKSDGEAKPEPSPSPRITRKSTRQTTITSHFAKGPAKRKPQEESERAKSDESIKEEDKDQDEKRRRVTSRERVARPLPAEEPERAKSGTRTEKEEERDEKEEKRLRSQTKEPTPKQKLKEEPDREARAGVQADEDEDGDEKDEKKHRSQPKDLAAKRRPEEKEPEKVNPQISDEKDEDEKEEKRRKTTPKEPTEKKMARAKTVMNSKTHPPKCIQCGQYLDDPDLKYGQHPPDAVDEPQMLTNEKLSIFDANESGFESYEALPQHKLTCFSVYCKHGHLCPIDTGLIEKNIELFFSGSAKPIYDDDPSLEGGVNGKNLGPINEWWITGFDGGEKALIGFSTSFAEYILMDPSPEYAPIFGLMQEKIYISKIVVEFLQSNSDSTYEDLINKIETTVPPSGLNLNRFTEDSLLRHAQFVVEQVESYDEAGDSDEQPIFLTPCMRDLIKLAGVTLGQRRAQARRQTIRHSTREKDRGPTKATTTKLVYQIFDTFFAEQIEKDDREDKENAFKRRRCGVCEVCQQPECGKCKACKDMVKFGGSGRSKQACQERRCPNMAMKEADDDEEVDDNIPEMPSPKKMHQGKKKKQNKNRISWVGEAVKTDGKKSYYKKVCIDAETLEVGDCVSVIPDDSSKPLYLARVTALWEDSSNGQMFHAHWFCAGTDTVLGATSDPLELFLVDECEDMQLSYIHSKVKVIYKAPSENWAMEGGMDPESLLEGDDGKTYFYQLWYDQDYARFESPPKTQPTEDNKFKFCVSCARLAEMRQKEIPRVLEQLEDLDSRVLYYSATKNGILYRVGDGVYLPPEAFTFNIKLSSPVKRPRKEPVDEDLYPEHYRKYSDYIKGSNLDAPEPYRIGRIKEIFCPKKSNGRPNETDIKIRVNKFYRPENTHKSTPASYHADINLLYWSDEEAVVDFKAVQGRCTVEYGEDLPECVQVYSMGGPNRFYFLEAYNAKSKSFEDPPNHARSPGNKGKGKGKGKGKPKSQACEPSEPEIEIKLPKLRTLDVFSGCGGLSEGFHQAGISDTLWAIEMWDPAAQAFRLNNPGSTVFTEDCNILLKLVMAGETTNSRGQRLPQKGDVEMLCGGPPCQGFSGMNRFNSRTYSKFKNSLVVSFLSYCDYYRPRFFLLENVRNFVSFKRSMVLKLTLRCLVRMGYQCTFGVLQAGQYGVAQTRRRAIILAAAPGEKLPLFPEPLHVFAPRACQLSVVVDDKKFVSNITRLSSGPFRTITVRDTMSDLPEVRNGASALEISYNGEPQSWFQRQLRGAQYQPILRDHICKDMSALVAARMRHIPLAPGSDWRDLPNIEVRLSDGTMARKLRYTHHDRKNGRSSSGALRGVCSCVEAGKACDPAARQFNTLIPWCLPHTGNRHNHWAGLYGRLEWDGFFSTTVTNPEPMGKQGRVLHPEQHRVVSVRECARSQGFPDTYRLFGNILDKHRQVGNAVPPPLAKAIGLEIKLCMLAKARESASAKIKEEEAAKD
UniProt P49841: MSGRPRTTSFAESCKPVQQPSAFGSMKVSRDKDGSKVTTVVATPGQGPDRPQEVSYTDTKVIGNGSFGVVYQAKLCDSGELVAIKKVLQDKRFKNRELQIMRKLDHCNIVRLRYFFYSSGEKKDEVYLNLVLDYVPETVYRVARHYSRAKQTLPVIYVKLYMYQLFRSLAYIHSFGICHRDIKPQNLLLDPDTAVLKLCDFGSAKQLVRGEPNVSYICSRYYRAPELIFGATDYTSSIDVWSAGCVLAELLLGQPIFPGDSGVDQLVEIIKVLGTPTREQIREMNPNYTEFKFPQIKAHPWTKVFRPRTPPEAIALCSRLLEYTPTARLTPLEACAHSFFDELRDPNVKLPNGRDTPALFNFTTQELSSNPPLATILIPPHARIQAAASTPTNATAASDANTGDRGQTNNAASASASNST

Legend:
[1] = biological target: Myc-DNMT1 (S714A) (human) (UniProt P26358); test: co-IP; C4-2 and MDA-MB-231 cells transfected with Myc-DNMT1 (WT) or Myc-DNMT1 (S714A); Myc-tagged proteins immunoprecipitated with c-Myc antibody, blot of endogenous GSK3β
Myc-DNMT1 (WT) (human) = Myc-DNMT1 (WT) (human) (UniProt P26358); test: as above

Question: With “GSK3β (from UniProt P49841 1-420) (enzyme)” as the substance, how does the binding [1] read?
Answer: The binding was “binds”.

Question: And the binding (Myc-DNMT1 (WT) (human))?
Answer: Its binding is “binds”.
